From PubChem BioAssay AID504834 (National Center for Advancing Translational Sciences (NCATS), 2011)
Screen size: about 320,000 compounds; about 22,000 (6.9%) were called active. Inconclusive means that the source gave no clear call. Such entries were picked first, then a sample of the others. Calls come from the whole dose curve; as a rule, active = well fitted inhibition curve with a large enough effect; inconclusive = small, poorly fitted or top-dose-only effect, or another doubt; inactive = no such curve, though single readings can be large or run the other way. Where the call is inconclusive, the potency comes from a doubtful curve fit.

test: Primary qHTS for delayed death inhibitors of the malarial parasite plastid, 96 hour incubation; conditions: P. falciparum luciferase reporter growth; series mostly up to 28.7 µM; activity change, negative = inhibition: at the top concentration
How it was run: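 Parasite growth measured via integrated firefly luciferase reporter in P. falciparum. Infected erythrocytes at 2% hematocrit, 0.05% parasitemia final were treated 96 hours at 37 C under 5% CO2, and luminescence was read.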
% is set by controls: 0 for no effect and ±100 for the full control effect; potency is the fitted concentration of half-maximal effect.

Row | Compound | activity change, negative = inhibition | Potency
1 | CN1CCN(C2CCCCCC2)CC1 | inactive: 1.52% | 
2 | C#CCNC(=O)C1=C[C@H](c2ccc3c(c2)OCO3)C[C@H](OCc2ccc(CO)cc2)O1 |  | inconclusive: 20.8 µM [inhibitor, single point]
3 | CC(=O)c1ccc(Nc2nc(-c3cccnc3)cs2)cc1 |  | inconclusive: 1.85 µM [inhibitor, partial curve, poor fit]
4 | Cc1nn(C)c(C)c1CN(C)C(=O)c1cc2nc(-c3ccco3)cc(C(F)(F)F)n2n1 |  | inconclusive: 0.104 µM [inhibitor, full curve, poor fit]
5 | O=[N+]([O-])c1ccc(N2CCCC2)cc1N/N=C1\CN2CCC1CC2 |  | inconclusive: 18.5 µM [inhibitor, single point]
6 | O=C(NCc1ccc(F)cc1)C1CCCN(c2nc3ccsc3c(=O)s2)C1 (stereo not drawn) |  | inconclusive: 4.65 µM [inhibitor, partial curve]
7 | NCCCNc1nc(N)c([N+](=O)[O-])c(NC2CCCCC2)n1 |  | inconclusive: 2.62 µM [inhibitor, partial curve, poor fit]
8 | O=C(Cc1ccccc1)NCC(=O)OCc1ccc([N+](=O)[O-])cc1 |  | inconclusive: 18.5 µM [inhibitor, single point]
9 | COc1ccc(C2(C)NC(=O)N(CC(=O)NCc3ccccc3F)C2=O)cc1 (stereo not drawn) | inactive: -6.23% | 
10 | CCCc1cc(=O)oc2c(CN(CC)CC)c(O)c(Cl)cc12 |  | inconclusive: 11.7 µM [inhibitor, partial curve]
11 | CN(C)C1=NC[C@H](Cc2ccccc2)N1CCCCc1ccccc1 |  | inconclusive: 11.7 µM [inhibitor, single point]
12 | COc1ccccc1N(Cc1ccccc1)S(=O)(=O)c1cccc(C(=O)NCC2CCCO2)c1 (stereo not drawn) |  | inconclusive: 13.1 µM [inhibitor, single point]
13 | CCOC(=O)c1ccc(NC(=O)Nc2ccc3c(c2)OCCO3)cc1 | inactive: 14.1% | 
14 | O=C(CSc1nc2nn(-c3ccccc3)c(=O)c-2c2n1CCCCC2)c1ccc(O)c(O)c1 |  | inconclusive: 18.5 µM [inhibitor, single point]
15 | O=C(CN1CCc2ccccc2C1)Nc1cc(S(=O)(=O)N2CCOCC2)ccc1N1CCCC1 |  | inconclusive: 11.7 µM [inhibitor, single point]
16 | CC(C)Oc1ccc(/C=N/NC(=O)c2nnn(-c3nonc3N)c2CN(C)C2CCCCC2)cc1 | inactive: 38.5% | 
17 | CCc1ccc(CN(C)C(=O)c2cc(COc3cccc(C(F)(F)F)c3)on2)nc1 |  | inconclusive: 18.5 µM [inhibitor, single point]
18 | Clc1ccc(-c2csc3ncnc(NCCN4CCOCC4)c23)cc1 |  | inconclusive: 4.65 µM [inhibitor, partial curve, poor fit]
19 | COc1ccc(CC(=O)N(C)CC(=O)Nc2ccc(F)cc2)cc1S(=O)(=O)N1CCOCC1 |  | inconclusive: 18.5 µM [inhibitor, single point]
20 | CC(=O)NC1=NN(C(C)=O)C(C)(CS(=O)(=O)c2ccc3ccccc3c2)S1 (stereo not drawn) | inactive: 14.9% | 
21 | O=[N+]([O-])c1ccc(Sc2nc3ccccc3o2)c([N+](=O)[O-])c1 |  | inconclusive: 7.38 µM [inhibitor, partial curve]
22 | CC[C@H](NC(=O)c1c(C)c(-c2ccccc2)nc2ccccc12)c1ccccc1 |  | inconclusive: 10.4 µM [inhibitor, single point]

Row | Compound | activity change, negative = inhibition | Potency
23 | CC(C)Oc1cccc(NC(=O)c2cccn(Cc3ccc4c(c3)OC(F)(F)O4)c2=O)c1 |  | inconclusive: 18.5 µM [inhibitor, partial curve, poor fit]
24 | COc1cccc(-c2nnc(N(C)C(=O)c3ccno3)s2)c1 |  | inconclusive: 14.7 µM [inhibitor, single point]
25 | CCn1ncc2c1C(=O)NC1c3ccccc3C(=O)N21 (stereo not drawn) |  | inconclusive: 18.5 µM [inhibitor, single point]
26 | C/C(=N\NC(=O)CNC(=O)c1cccs1)c1ccc(Cl)c(Cl)c1 | inactive: 7.13% | 
27 | CN(C)C1=NC[C@H](Cc2ccccc2)N1CC1CCCCC1 |  | inconclusive: 18.5 µM [inhibitor, single point]
28 | Cn1cc(C=O)c(-c2ccc3c(c2)OCCCO3)n1 | inactive: 1.28% | 
29 | O=C(CCNC(=O)c1ccco1)Nc1ccc(C(F)(F)F)cc1 |  | inconclusive: 9.28 µM [inhibitor, partial curve, poor fit]
30 | COCCCn1c2nc3ccccc3nc2c2c(=O)n(Cc3ccc(Cl)cc3)cnc21 | inactive: 10.1% | 
31 | Cc1ccc(C(=O)Nc2ccccc2Oc2ccccc2)cc1[N+](=O)[O-] |  | inconclusive: 11.7 µM [inhibitor, single point]
32 | O=C(CCCCCN1C(=O)[C@@H]2Cc3ccccc3CN2C1=O)Nc1cccc(F)c1 |  | inconclusive: 18.5 µM [inhibitor, single point]
33 | CC1(c2ccc(Cl)cc2)NC(=S)N2C1NC(=S)N2c1ccccc1 (stereo not drawn) |  | inconclusive: 18.5 µM [inhibitor, single point]
34 | CCOc1ccc(CCNS(=O)(=O)c2cc3c(cc2C)NC(=O)CO3)cc1OCC |  | inconclusive: 11.7 µM [inhibitor, single point]
35 | CCOC(=O)N1CCC(n2c(SCC(=O)N3CCCC3)nc3ccccc3c2=O)CC1 |  | inconclusive: 0.415 µM [inhibitor, full curve]
36 | COc1ccccc1CCC(=O)Nc1cccc(S(=O)(=O)N2CCCC2)c1 |  | inconclusive: 13.1 µM [inhibitor, single point]
37 | CCN(CC(=O)N1CCN(Cc2ccccc2)CC1)S(=O)(=O)c1ccc(C)cc1 |  | inconclusive: 18.5 µM [inhibitor, single point]
38 | COc1ccc(-c2n[nH]c(=S)n2Cc2ccccc2)cc1 |  | inconclusive: 18.5 µM [inhibitor, single point]
39 | COc1cccc(/C=N/NC(=S)Nc2cccc(S(=O)(=O)N(C)C)c2)c1 | inactive: 2.64% | 
40 | COc1ccc(NC(=O)C(NC(=O)OC(C)(C)C)C(C)OCc2ccccc2)cc1 (stereo not drawn) |  | active: 1.65 µM
41 | Nc1cc(=O)[nH]c(SCC(=O)Nc2ccccc2Sc2ccc(Cl)cc2)n1 |  | inconclusive: 2.94 µM [inhibitor, partial curve]
42 | CCC(=O)N1CCN(c2ccccc2NC(=O)c2cccc(C)c2)CC1 | inactive: 18.6% | 
43 | O=C1c2ccccc2C(=O)N1Cc1nc2ccccc2o1 | inactive: -26.6% | 

Another view of part of the listing above.
Row	Compound	activity change, negative = inhibition	Potency
32	O=C(CCCCCN1C(=O)[C@@H]2Cc3ccccc3CN2C1=O)Nc1cccc(F)c1		inconclusive: 18.5 µM [inhibitor, single point]
33	CC1(c2ccc(Cl)cc2)NC(=S)N2C1NC(=S)N2c1ccccc1 (stereo not drawn)		inconclusive: 18.5 µM [inhibitor, single point]
